Data reported in US9895450B2, “Anti-wall teichoic antibodies and conjugates” (priority 2013, dated 2018).
Some results were stated once for a whole list of compounds, not compound by compound.

Tested on: MRSA (USA300 strain)
Experiment: in vitro macrophage assay (intracellular killing of opsonized MRSA)
Format: cell-based, S. aureus
Details: titration 10 μg/mL to 0.003 μg/mL

How did the “AAC concentration at which optimal killing occurred” value turn out when “thio-S4497-HC-A118C-MC-vc-PABC-(pipBOR) [rifa-102]” was run?
The value was “more than 2 μg/mL”.
